Source: PubChem BioAssay AID2685 (National Center for Advancing Translational Sciences (NCATS), 2010)
This is one part of the list. Further columns of the screen follow, without active or inactive calls. Most of these compounds were active or inconclusive in the main read-out, so they are no random draw. Words in brackets tell the shape of the fitted curve; partial curves, single points and poor fits give uncertain potencies.

Test: qHTS Assay for Lipid Storage Modulators in Drosophila S3 Cells;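 for cell number change: cells counted by Cell Tracker Red CMTPX staining in the red channel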
Conditions: BODIPY lipid droplet fluorescence, 18-24 h; for cell number change: measured here: cell count max response, cells fed with added oleic acid
Method in brief: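 Drosophila S3 cells got compounds at several concentrations plus oleic acid (400 uM solution). Laser-scanning cytometry with 488 nm excitation read lipid droplets at 500-530 nm and cells at 575-640 nm. Percent activity was relative to 20 uM Triacsin C.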

[1] = measured here: cell number channel AC50, cells fed with added oleic acid
[2] = measured here: lipid fluorescence (Fed channel) AC50, cells fed with added oleic acid

SMILES | cell number change | AC50 [1] | AC50 [2]
COc1ccc(NC(=O)CCN2C(=O)C3CC=CCC3C2=O)cc1S(=O)(=O)N1CCCCC1 (stereo not drawn) | -17.5% | 291 nM [falling, full curve, poor fit] | –
CC12CCC(=O)N1C(C(=O)Nc1ccc(SC(F)F)cc1)CS2 (stereo not drawn) | 16.7% | – | 23100 nM [rising, single point]
Cc1cc(Cl)ccc1OCCCC(=O)NO | -32.1% | 731 nM [falling, full curve] | 1300 nM [falling, full curve]
NS(=O)(=O)c1ccc(NC(=O)c2cc(-c3cccs3)nc3ccccc23)cc1 | -16% | – | 13000 nM [falling, partial curve, poor fit]
COc1ccccc1NS(=O)(=O)c1ccc2c(c1)N(C(C)=O)CC(C)S2 (stereo not drawn) | 23.6% | – | –
O=C(NNC(=O)c1ccccc1[N+](=O)[O-])c1ccc(NS(=O)(=O)c2cccs2)cc1 | 1.19% | – | 1460 nM [rising, full curve, poor fit]
Cc1ccc(C(=O)N2CCc3ccccc32)cc1[N+](=O)[O-] | 17.5% | – | –
CN(C)S(=O)(=O)c1cccc(NC(=O)c2cccc(S(=O)(=O)N3CCc4ccccc43)c2)c1 | -10.8% | – | 1030 nM [falling, partial curve, poor fit]
COc1ccc(NC2CCCN(C(=O)CCc3scnc3C)C2)cc1 (stereo not drawn) | 27.2% | – | 3260 nM [rising, full curve, poor fit]
Cc1cc(NCC2CCCCC2)nc2ccccc12 | – | – | 326 nM [falling, full curve, poor fit]
CCOC(=O)c1nn(-c2ccccc2C)c2nc(-c3ccc(Cl)cc3)c(C#N)c(=O)n12 | 5.96% | 651 nM [falling, single point] | –
N#Cc1cccc(OCC(=O)NC(=O)NCc2ccccc2)c1 | -0.631% | 580 nM [falling, single point] | –
COC(=O)CC1SCCNC1=O (stereo not drawn) | -19.8% | – | –
CCOc1cc(/C=C2\SC(=O)N(CC(=O)Nc3ccccc3F)C2=O)cc([N+](=O)[O-])c1O | 0.241% | – | 731 nM [falling, full curve, poor fit]
C=CCOC(=O)C1=C(C)Nc2ncnn2C1c1cc(Br)ccc1F (stereo not drawn) | -8.88% | – | –
CCCc1nc(SCC(=O)Nc2ccccc2OC)c2c(=O)n(C)c(=O)n(C)c2n1 | – | 103 nM [rising, full curve, poor fit] | –
Cc1nc2ccc(NC(=O)c3cc([N+](=O)[O-])cc([N+](=O)[O-])c3Cl)cc2s1 | -70.1% | 4110 nM [falling, full curve] | 2910 nM [falling, full curve]
O=C(CC1CCCCC1)N=C1SC2CS(=O)(=O)CC2N1c1ccccc1 (stereo not drawn) | -6.46% | – | 731 nM [falling, full curve, poor fit]
CN1CCN(C(=O)c2cn(-c3ccccc3)nc2-c2cccs2)CC1 | -79.6% | – | –

Part of the list above in a different format.
CN(C)S(=O)(=O)c1cccc(NC(=O)c2cccc(S(=O)(=O)N3CCc4ccccc43)c2)c1
  cell number change: -10.8%
  AC50 [2]: 1030 nM [falling, partial curve, poor fit]
COc1ccc(NC2CCCN(C(=O)CCc3scnc3C)C2)cc1 (stereo not drawn)
  cell number change: 27.2%
  AC50 [2]: 3260 nM [rising, full curve, poor fit]
Cc1cc(NCC2CCCCC2)nc2ccccc12
  AC50 [2]: 326 nM [falling, full curve, poor fit]

Next results

SMILES | cell number change | AC50 [1] | AC50 [2]
Cc1cccc(OCC(=O)Nc2cccc(O)c2)c1 | 23.2% | – | –
Cc1ccc(C(=O)CN(C(=O)c2ccc(Cl)cc2)N2C(=O)c3ccccc3C2=O)cc1 | 84.8% | 23100 nM [rising, single point] | –
COc1ccc(COc2cc(-c3cccc(OC)c3)nc3ccc(N)cc23)cc1 | 44.5% | 16400 nM [rising, partial curve, poor fit] | 231 nM [rising, full curve]
O=C(O)C1CC(=O)N(c2ccc(F)cc2)C1 (stereo not drawn) | -19.8% | – | 2910 nM [falling, full curve]
COC(=O)c1cc(Br)c(=O)n(-c2ccc(C(C)=O)cc2)c1 | -34.5% | 29100 nM [falling, single point] | 29100 nM [falling, single point]
CCOc1ccc(S(=O)(=O)N2CCCC(C(=O)NCc3ccccn3)C2)cc1C (stereo not drawn) | 3.78% | – | 116 nM [rising, full curve]
CCOc1ccccc1N1CCN(CC(O)COc2ccc3c(C)cc(=O)oc3c2)CC1 (stereo not drawn) | – | – | 6510 nM [rising, single point]
CCOCCC(=O)Nc1nnc(CCc2ccccc2)s1 | -4.56% | – | 29100 nM [rising, single point]
COCCCNC(=O)Cc1c(C)c2c(cc(C)c3c(C(C)(C)C)coc32)oc1=O | -80.4% | 20600 nM [falling, partial curve] | 10300 nM [falling, partial curve]
CCn1c(SCC(=O)Nc2ccc(OC)c(OC)c2)nnc1-c1ccco1 | 17.8% | 580 nM [rising, single point] | 29.1 nM [rising, full curve, poor fit]
Cc1nn(CC(=O)NCCCN2CCC(Cc3ccccc3)CC2)c(=O)c2cc(-c3ccccc3)nn12 | 17.5% | – | 2590 nM [rising, single point]
COc1ccc(-c2cc(C)no2)cc1S(=O)(=O)NCC1CCN(Cc2cc(C)ccc2C)CC1 | 23.4% | – | 18400 nM [rising, partial curve]
Cc1ccc(C(=O)Nc2ccc(N3CCOCC3)c3nonc23)cc1[N+](=O)[O-] | 23.9% | – | 6510 nM [falling, single point]
COc1cccc(N2CCN(C(=O)/C=C/c3ccco3)CC2)c1 | 35.5% | 1030 nM [rising, full curve, poor fit] | 23100 nM [rising, single point]
O=C(COC(=O)c1ccc(S(=O)(=O)N2CCCCC2)cc1)NCc1ccc(F)cc1 | 15.5% | – | –
O=C(NNS(=O)(=O)c1ccc(Br)cc1)C1CCCCC1 | 17.9% | – | 1840 nM [falling, partial curve]
COc1ccccc1/C=N/NC(=O)c1ccccc1NS(=O)(=O)c1ccc(C)cc1 | 69.5% | 16400 nM [rising, single point] | 18400 nM [rising, single point]
CS(=O)(=O)Oc1ccc2c(c1)O/C(=C\c1cccc([N+](=O)[O-])c1)C2=O | -31.8% | 20600 nM [falling, single point] | 29100 nM [falling, single point]
